This is one part of the list. Single values are uncertain, as repeats are few or missing.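 Imaging used 1,536-well plates; nuclei positive for cleaved PARP by antibody were divided by total DNA-stained nuclei to yield the apoptosis fraction. Doses for screening kept most cells viable, and cell lines differ markedly in resting and induced cleaved-PARP levels.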
Test system: LOXIMVI
Assay: cleaved PARP positive nuclei fraction relative to DMSO control; melanoma cells; higher = more apoptosis
Conditions: library dose: low library concentration; 72 h

Structure (SMILES)	cleaved PARP positive nuclei fraction [%]
Cc1ccc(Nc2nccc(N(C)c3ccc4c(C)n(C)nc4c3)n2)cc1S(N)(=O)=O [Pazopanib] + CS(=O)(=O)CCNCc1ccc(-c2ccc3ncnc(Nc4ccc(OCc5cccc(F)c5)c(Cl)c4)c3c2)o1 [lapatinib] (first compound 0.4 µM, partner dose 0.8 µM)	121
N#CC[C@H](C1CCCC1)n1cc(-c2ncnc3[nH]ccc23)cn1 [ruxolitinib] + C[C@]1(c2nc3c(C(N)=O)cccc3[nH]2)CCCN1 [Veliparib] (first compound 1 µM, partner dose 1.4 µM)	92.5
CC[C@]1(O)C[C@H]2CN(CCc3c([nH]c4ccccc34)[C@@](C(=O)OC)(c3cc4c(cc3OC)N(C=O)[C@H]3[C@@](O)(C(=O)OC)[C@H](OC(C)=O)[C@]5(CC)C=CCN6CC[C@]43[C@@H]65)C2)C1 [vincristine] + Cn1cnc2c(F)c(Nc3ccc(Br)cc3Cl)c(C(=O)NOCCO)cc21 [selumetinib] (first compound 0.0001 µM, partner dose 0.015 µM)	113
CC[C@]1(O)C[C@H]2CN(CCc3c([nH]c4ccccc34)[C@@](C(=O)OC)(c3cc4c(cc3OC)N(C=O)[C@H]3[C@@](O)(C(=O)OC)[C@H](OC(C)=O)[C@]5(CC)C=CCN6CC[C@]43[C@@H]65)C2)C1 [vincristine] + Nc1cccc2c1CN(C1CCC(=O)NC1=O)C2=O [lenalidomide] (first compound 0.0001 µM, partner dose 1 µM)	195
N#CC[C@H](C1CCCC1)n1cc(-c2ncnc3[nH]ccc23)cn1 [ruxolitinib] + CCN(CC)CCNC(=O)c1c(C)[nH]c(/C=C2\C(=O)Nc3ccc(F)cc32)c1C [sunitinib] (first compound 1 µM, partner dose 0.4 µM)	184
COc1cc([C@@H]2c3cc4c(cc3[C@@H](O[C@@H]3O[C@@H]5CO[C@@H](C)O[C@H]5[C@H](O)[C@H]3O)[C@H]3COC(=O)[C@H]23)OCO4)cc(OC)c1O [etoposide] + O=C(/C=C/c1cccnc1)NCCCCC1CCN(C(=O)c2ccccc2)CC1 [FK866] (first compound 0.02 µM, partner dose 0.01 µM)	235
O=c1[nH]nc(Sc2ncc([N+](=O)[O-])s2)n1-c1ccc2c(c1)OCCO2 + CC(=O)O[C@@]12CO[C@@H]1C[C@H](O)[C@@]1(C)C(=O)[C@H](O)C3=C(C)[C@@H](OC(=O)[C@H](O)[C@@H](NC(=O)OC(C)(C)C)c4ccccc4)C[C@@](O)([C@@H](OC(=O)c4ccccc4)[C@H]21)C3(C)C [Docetaxel] (first compound 0.2 µM, partner dose 0.0001 µM)	256
N#CC[C@H](C1CCCC1)n1cc(-c2ncnc3[nH]ccc23)cn1 [ruxolitinib] + NC(=O)c1ccc(N(C(N)=O)c2c(F)cccc2F)nc1-c1ccc(F)cc1F [VX702] (first compound 1 µM, partner dose 0.4 µM)	95
N#CC[C@H](C1CCCC1)n1cc(-c2ncnc3[nH]ccc23)cn1 [ruxolitinib] + Cn1sc(=O)n(Cc2ccccc2)c1=O [TDZD-8] (first compound 1 µM, partner dose 0.4 µM)	247
CC[C@]1(O)C[C@H]2CN(CCc3c([nH]c4ccccc34)[C@@](C(=O)OC)(c3cc4c(cc3OC)N(C=O)[C@H]3[C@@](O)(C(=O)OC)[C@H](OC(C)=O)[C@]5(CC)C=CCN6CC[C@]43[C@@H]65)C2)C1 [vincristine] + C[C@@H](Oc1cc(-c2cnn(C3CCNCC3)c2)cnc1N)c1c(Cl)ccc(F)c1Cl [Crizotinib] (first compound 0.0001 µM, partner dose 0.2 µM)	98.3
O=c1[nH]nc(Sc2ncc([N+](=O)[O-])s2)n1-c1ccc2c(c1)OCCO2 + CN(c1ncccc1CNc1nc(Nc2ccc3c(c2)CC(=O)N3)ncc1C(F)(F)F)S(C)(=O)=O [PF562271] (first compound 0.2 µM, partner dose 0.08 µM)	211
O=C(Nc1cc(C(F)(F)F)cc(C(F)(F)F)c1)c1cc(Cl)ccc1O + Nc1ccn([C@@H]2O[C@H](CO)[C@@H](O)C2(F)F)c(=O)n1 [gemcitabine] (first compound 0.016 µM, partner dose 0.0004 µM)	133
COc1cc([C@@H]2c3cc4c(cc3[C@@H](O[C@@H]3O[C@@H]5CO[C@@H](C)O[C@H]5[C@H](O)[C@H]3O)[C@H]3COC(=O)[C@H]23)OCO4)cc(OC)c1O [etoposide] + CCCS(=O)(=O)Nc1ccc(F)c(C(=O)c2c[nH]c3ncc(Cl)cc23)c1F [PLX4720] (first compound 0.02 µM, partner dose 0.08 µM)	112
CC[C@]1(O)C[C@H]2CN(CCc3c([nH]c4ccccc34)[C@@](C(=O)OC)(c3cc4c(cc3OC)N(C=O)[C@H]3[C@@](O)(C(=O)OC)[C@H](OC(C)=O)[C@]5(CC)C=CCN6CC[C@]43[C@@H]65)C2)C1 [vincristine] + Cn1c(=O)n(-c2ccc(C(C)(C)C#N)cc2)c2c3cc(-c4cnc5ccccc5c4)ccc3ncc21 [NVP-BEZ235] (first compound 0.0001 µM, partner dose 0.004 µM)	153
Cc1cc(Nc2cc(N3CCN(C)CC3)nc(Sc3ccc(NC(=O)C4CC4)cc3)n2)n[nH]1 [Tozasertib] + Cc1cc(Nc2cc(N3CCN(C)CC3)nc(/C=C/c3ccccc3)n2)n[nH]1 [ENMD2076] (first compound 0.006 µM, partner dose 0.04 µM)	127
O=C(Nc1cc(C(F)(F)F)cc(C(F)(F)F)c1)c1cc(Cl)ccc1O + C[C@]1(c2nc3c(C(N)=O)cccc3[nH]2)CCCN1 [Veliparib] (first compound 0.016 µM, partner dose 1.4 µM)	68
O=C(Nc1cc(C(F)(F)F)cc(C(F)(F)F)c1)c1cc(Cl)ccc1O + Nc1ncn([C@H]2C[C@H](O)[C@@H](CO)O2)c(=O)n1 [decitabine] (first compound 0.016 µM, partner dose 0.1 µM)	62
CC[C@]1(O)C[C@H]2CN(CCc3c([nH]c4ccccc34)[C@@](C(=O)OC)(c3cc4c(cc3OC)N(C=O)[C@H]3[C@@](O)(C(=O)OC)[C@H](OC(C)=O)[C@]5(CC)C=CCN6CC[C@]43[C@@H]65)C2)C1 [vincristine] + Cn1c(Nc2ccc(C(F)(F)F)cc2)nc2cc(Oc3ccnc(-c4ncc(C(F)(F)F)[nH]4)c3)ccc21 [CHIR265] (first compound 0.0001 µM, partner dose 0.08 µM)	181
Cc1cc(Nc2cc(N3CCN(C)CC3)nc(Sc3ccc(NC(=O)C4CC4)cc3)n2)n[nH]1 [Tozasertib] + N#CC[C@H](C1CCCC1)n1cc(-c2ncnc3[nH]ccc23)cn1 [ruxolitinib] (first compound 0.006 µM, partner dose 1 µM)	123
CC[C@]1(O)C[C@H]2CN(CCc3c([nH]c4ccccc34)[C@@](C(=O)OC)(c3cc4c(cc3OC)N(C=O)[C@H]3[C@@](O)(C(=O)OC)[C@H](OC(C)=O)[C@]5(CC)C=CCN6CC[C@]43[C@@H]65)C2)C1 [vincristine] + C=C(c1ccc(C(=O)O)cc1)c1cc2c(cc1C)C(C)(C)CCC2(C)C [Bexarotene] (first compound 0.0001 µM, partner dose 2 µM)	118
O=C(/C=C/c1cccnc1)NCCCCC1CCN(C(=O)c2ccccc2)CC1 + C#Cc1cccc(Nc2ncnc3cc(OCCOC)c(OCCOC)cc23)c1 [erlotinib] (first compound 0.01 µM, partner dose 0.8 µM)	203
Cc1cn(-c2cc(NC(=O)c3ccc(C)c(Nc4nccc(-c5cccnc5)n4)c3)cc(C(F)(F)F)c2)cn1 [nilotinib] + CO[C@H]1C[C@@H]2CC[C@@H](C)[C@@](O)(O2)C(=O)C(=O)N2CCCC[C@H]2C(=O)O[C@H]([C@H](C)C[C@@H]2CC[C@@H](OCCO)[C@H](OC)C2)CC(=O)[C@H](C)/C=C(\C)[C@@H](O)[C@@H](OC)C(=O)[C@H](C)C[C@H](C)/C=C/C=C/C=C/1C [everolimus] (first compound 0.2 µM, partner dose 0.02 µM)	399
O=C(Nc1cc(C(F)(F)F)cc(C(F)(F)F)c1)c1cc(Cl)ccc1O + Cn1c(Nc2ccc(C(F)(F)F)cc2)nc2cc(Oc3ccnc(-c4ncc(C(F)(F)F)[nH]4)c3)ccc21 [CHIR265] (first compound 0.016 µM, partner dose 0.08 µM)	152
O=c1[nH]nc(Sc2ncc([N+](=O)[O-])s2)n1-c1ccc2c(c1)OCCO2 + OCc1c[nH]c2ccccc12 [Indole-3-carbinol] (first compound 0.2 µM, partner dose 0.8 µM)	199
O=C(/C=C/c1cccnc1)NCCCCC1CCN(C(=O)c2ccccc2)CC1 + CO[C@H]1C[C@@H]2CC[C@@H](C)[C@@](O)(O2)C(=O)C(=O)N2CCCC[C@H]2C(=O)O[C@H]([C@H](C)C[C@@H]2CC[C@@H](OCCO)[C@H](OC)C2)CC(=O)[C@H](C)/C=C(\C)[C@@H](O)[C@@H](OC)C(=O)[C@H](C)C[C@H](C)/C=C/C=C/C=C/1C [everolimus] (first compound 0.01 µM, partner dose 0.02 µM)	89.8

An excerpt taken from the entries so far, for reference:
Structure (SMILES)	cleaved PARP positive nuclei fraction [%]
Cc1ccc(Nc2nccc(N(C)c3ccc4c(C)n(C)nc4c3)n2)cc1S(N)(=O)=O [Pazopanib] + CS(=O)(=O)CCNCc1ccc(-c2ccc3ncnc(Nc4ccc(OCc5cccc(F)c5)c(Cl)c4)c3c2)o1 [lapatinib] (first compound 0.4 µM, partner dose 0.8 µM)	121
N#CC[C@H](C1CCCC1)n1cc(-c2ncnc3[nH]ccc23)cn1 [ruxolitinib] + C[C@]1(c2nc3c(C(N)=O)cccc3[nH]2)CCCN1 [Veliparib] (first compound 1 µM, partner dose 1.4 µM)	92.5
CC[C@]1(O)C[C@H]2CN(CCc3c([nH]c4ccccc34)[C@@](C(=O)OC)(c3cc4c(cc3OC)N(C=O)[C@H]3[C@@](O)(C(=O)OC)[C@H](OC(C)=O)[C@]5(CC)C=CCN6CC[C@]43[C@@H]65)C2)C1 [vincristine] + Cn1cnc2c(F)c(Nc3ccc(Br)cc3Cl)c(C(=O)NOCCO)cc21 [selumetinib] (first compound 0.0001 µM, partner dose 0.015 µM)	113
CC[C@]1(O)C[C@H]2CN(CCc3c([nH]c4ccccc34)[C@@](C(=O)OC)(c3cc4c(cc3OC)N(C=O)[C@H]3[C@@](O)(C(=O)OC)[C@H](OC(C)=O)[C@]5(CC)C=CCN6CC[C@]43[C@@H]65)C2)C1 [vincristine] + Nc1cccc2c1CN(C1CCC(=O)NC1=O)C2=O [lenalidomide] (first compound 0.0001 µM, partner dose 1 µM)	195
N#CC[C@H](C1CCCC1)n1cc(-c2ncnc3[nH]ccc23)cn1 [ruxolitinib] + CCN(CC)CCNC(=O)c1c(C)[nH]c(/C=C2\C(=O)Nc3ccc(F)cc32)c1C [sunitinib] (first compound 1 µM, partner dose 0.4 µM)	184
COc1cc([C@@H]2c3cc4c(cc3[C@@H](O[C@@H]3O[C@@H]5CO[C@@H](C)O[C@H]5[C@H](O)[C@H]3O)[C@H]3COC(=O)[C@H]23)OCO4)cc(OC)c1O [etoposide] + O=C(/C=C/c1cccnc1)NCCCCC1CCN(C(=O)c2ccccc2)CC1 [FK866] (first compound 0.02 µM, partner dose 0.01 µM)	235

From the supplement of paper PMC4604168 (melanoma cell lines)
